In the assay the target is INHBA overexpressed in the INHBA-overexpressing cell model (human) (UniProt P08476). The assay is described as follows: co-IP; CRC cell lysates; protein A/G magnetic beads with antibody or anti-Flag / anti-HA magnetic beads, overnight at 4 °C, six washes with lysis buffer, Western blot. For orientation: Immunoblotting shows a protein as a band on a membrane.

The chains behind the UniProt entries cited, without tags or fusion partners. Where a name states a change or a piece, a line headed by the entry shows the natural chain unless it says otherwise.
UniProt P08476: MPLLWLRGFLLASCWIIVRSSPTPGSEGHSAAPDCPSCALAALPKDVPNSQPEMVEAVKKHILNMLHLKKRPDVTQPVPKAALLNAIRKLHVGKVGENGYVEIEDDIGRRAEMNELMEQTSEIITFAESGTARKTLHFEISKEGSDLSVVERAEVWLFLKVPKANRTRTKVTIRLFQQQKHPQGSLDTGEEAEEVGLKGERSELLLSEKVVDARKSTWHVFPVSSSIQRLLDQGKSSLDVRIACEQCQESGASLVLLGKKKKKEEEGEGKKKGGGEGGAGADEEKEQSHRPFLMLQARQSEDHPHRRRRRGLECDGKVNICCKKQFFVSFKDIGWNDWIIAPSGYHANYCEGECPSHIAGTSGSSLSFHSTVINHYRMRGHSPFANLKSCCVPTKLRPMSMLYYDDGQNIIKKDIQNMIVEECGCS

Among the data in article PMC12741050 are binding values, retold here.

Results are given in words; binding and its absence hold for the method and conditions named. In cells and extracts the contact can be indirect. Binding calls can cover weak binding; strength is not graded here.

B1: SLC25A10 in CRC cells (no SLC25A10 construct named) (protein, UniProt Q9UBX3 1-287)
chain: MAAEARVSRWYFGGLASCGAACCTHPLDLLKVHLQTQQEVKLRMTGMALRVVRTDGILALYSGLSASLCRQMTYSLTRFAIYETVRDRVAKGSQGPLPFHEKVLLGSVSGLAGGFVGTPADLVNVRMQNDVKLPQGQRRNYAHALDGLYRVAREEGLRRLFSGATMASSRGALVTVGQLSCYDQAKQLVLSTGYLSDNIFTHFVASFIAGGCATFLCQPLDVLKTRLMNSKGEYQGVFHCAVETAKLGPLAFYKGLVPAGIRLIPHTVLTFVFLEQLRKNFGIKVPS
On to B1, for which the binding result is on record as “binds”.
